These are yes or no findings as the source states them, for the method shown. Binding can be weak; no strength is given.
Target: Bud14-SH3Δ (S. cerevisiae (budding yeast)) (UniProt P27637)
Assay: two-hybrid; LexA DNA-binding domain (pMM5) and Gal4 activation domain (pMM6) fusions in strain SGY37-VIII,3 (lexA-op-LacZ); drops on agar plates overlaid with soft agar, blue colour read; also done in bfa1Δ and bud14Δ backgrounds

The chains behind the UniProt entries cited, without tags or fusion partners. Where a name states a change or a piece, a line headed by the entry shows the natural chain unless it says otherwise.
UniProt P27637: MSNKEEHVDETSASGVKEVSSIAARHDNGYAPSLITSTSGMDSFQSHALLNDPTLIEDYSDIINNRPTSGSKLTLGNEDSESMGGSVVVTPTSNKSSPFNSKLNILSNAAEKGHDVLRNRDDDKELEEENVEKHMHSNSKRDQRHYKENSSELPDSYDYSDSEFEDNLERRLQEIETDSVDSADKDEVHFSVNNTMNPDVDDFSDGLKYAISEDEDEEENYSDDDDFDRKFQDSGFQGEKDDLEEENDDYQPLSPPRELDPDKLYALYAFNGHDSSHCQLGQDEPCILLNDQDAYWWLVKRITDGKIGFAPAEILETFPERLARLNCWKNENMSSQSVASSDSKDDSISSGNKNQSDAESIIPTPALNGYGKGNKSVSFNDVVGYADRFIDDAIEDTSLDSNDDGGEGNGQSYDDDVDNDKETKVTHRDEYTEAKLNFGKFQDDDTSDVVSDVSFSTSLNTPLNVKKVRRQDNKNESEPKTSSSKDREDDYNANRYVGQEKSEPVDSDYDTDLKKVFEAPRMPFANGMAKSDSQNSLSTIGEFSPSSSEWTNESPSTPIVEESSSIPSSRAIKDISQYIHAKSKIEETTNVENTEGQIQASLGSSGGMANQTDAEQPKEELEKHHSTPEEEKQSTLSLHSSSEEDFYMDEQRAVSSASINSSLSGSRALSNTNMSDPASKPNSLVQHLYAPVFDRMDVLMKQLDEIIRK

B1: Cdc14 (enzyme, UniProt Q00684 1-551)
chain: MRRSVYLDNTIEFLRGRVYLGAYDYTPEDTDELVFFTVEDAIFYNSFHLDFGPMNIGHLYRFAVIFHEILNDPENANKAVVFYSSASTRQRANAACMLCCYMILVQAWTPHQVLQPLAQVDPPFMPFRDAGYSNADFEITIQDVVYGVWRAKEKGLIDLHSFNLESYEKYEHVEFGDFNVLTPDFIAFASPQEDHPKGYLATKSSHLNQPFKSVLNFFANNNVQLVVRLNSHLYNKKHFEDIGIQHLDLIFEDGTCPDLSIVKNFVGAAETIIKRGGKIAVHCKAGLGRTGCLIGAHLIYTYGFTANECIGFLRFIRPGMVVGPQQHWLYLHQNDFREWKYTTRISLKPSEAIGGLYPLISLEEYRLQKKKLKDDKRVAQNNIEGELRDLTMTPPSNGHGALSARNSSQPSTANNGSNSFKSSAVPQTSPGQPRKGQNGSNTIEDINNNRNPTSHANRKVVIESNNSDDESMQDTNGTSNHYPKVSRKKNDISSASSSRMEDNEPSATNINNAADDTILRQLLPKNRRVTSGRRTTSAAGGIRKISGSIKK
Question: With B1 as the binder, how does the binding read?
Answer: Its binding is “binds”.

— paper PMC11518377
